Measured values: the supplement of paper PMC10849652
This is one part of the list.

By UniProt entry, the sequences of proteins in these tests, tags left out. Where a name states a change or a piece, a line headed by the entry shows the natural chain unless it says otherwise.
UniProt Q76I76: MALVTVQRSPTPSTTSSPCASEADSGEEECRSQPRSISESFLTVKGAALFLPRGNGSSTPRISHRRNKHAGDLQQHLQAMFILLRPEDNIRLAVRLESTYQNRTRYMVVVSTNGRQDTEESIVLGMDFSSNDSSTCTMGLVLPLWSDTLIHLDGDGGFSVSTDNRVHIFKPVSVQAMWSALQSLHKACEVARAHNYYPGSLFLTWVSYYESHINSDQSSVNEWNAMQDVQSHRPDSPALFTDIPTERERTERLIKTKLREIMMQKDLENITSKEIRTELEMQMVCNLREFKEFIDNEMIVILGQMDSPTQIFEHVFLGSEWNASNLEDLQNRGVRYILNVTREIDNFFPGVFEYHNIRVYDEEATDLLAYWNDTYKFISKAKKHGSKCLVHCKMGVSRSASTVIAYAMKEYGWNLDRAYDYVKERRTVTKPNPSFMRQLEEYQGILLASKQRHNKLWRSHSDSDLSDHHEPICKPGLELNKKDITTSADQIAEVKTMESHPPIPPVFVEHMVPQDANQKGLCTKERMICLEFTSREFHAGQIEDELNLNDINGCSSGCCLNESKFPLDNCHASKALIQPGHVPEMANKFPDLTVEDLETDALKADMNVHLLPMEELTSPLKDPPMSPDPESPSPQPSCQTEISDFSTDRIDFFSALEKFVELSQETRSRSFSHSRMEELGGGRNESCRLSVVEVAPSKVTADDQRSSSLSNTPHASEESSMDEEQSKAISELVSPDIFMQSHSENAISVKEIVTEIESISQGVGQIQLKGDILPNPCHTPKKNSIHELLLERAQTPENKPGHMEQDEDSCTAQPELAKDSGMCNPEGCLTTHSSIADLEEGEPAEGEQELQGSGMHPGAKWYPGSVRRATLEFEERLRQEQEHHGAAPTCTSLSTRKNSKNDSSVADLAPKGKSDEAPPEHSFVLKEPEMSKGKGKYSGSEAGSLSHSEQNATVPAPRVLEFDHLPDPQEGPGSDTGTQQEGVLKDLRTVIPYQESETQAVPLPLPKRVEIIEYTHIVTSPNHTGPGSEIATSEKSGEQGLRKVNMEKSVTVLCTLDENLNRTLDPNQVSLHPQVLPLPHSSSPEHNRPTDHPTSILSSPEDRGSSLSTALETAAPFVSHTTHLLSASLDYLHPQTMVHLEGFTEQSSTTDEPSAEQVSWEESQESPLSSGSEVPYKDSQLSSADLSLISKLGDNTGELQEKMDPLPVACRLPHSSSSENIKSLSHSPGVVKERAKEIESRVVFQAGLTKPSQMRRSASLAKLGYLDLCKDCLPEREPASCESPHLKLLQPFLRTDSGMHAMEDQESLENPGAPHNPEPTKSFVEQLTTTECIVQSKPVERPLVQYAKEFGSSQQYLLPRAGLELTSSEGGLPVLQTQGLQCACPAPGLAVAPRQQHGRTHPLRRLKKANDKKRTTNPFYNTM
UniProt Q11201: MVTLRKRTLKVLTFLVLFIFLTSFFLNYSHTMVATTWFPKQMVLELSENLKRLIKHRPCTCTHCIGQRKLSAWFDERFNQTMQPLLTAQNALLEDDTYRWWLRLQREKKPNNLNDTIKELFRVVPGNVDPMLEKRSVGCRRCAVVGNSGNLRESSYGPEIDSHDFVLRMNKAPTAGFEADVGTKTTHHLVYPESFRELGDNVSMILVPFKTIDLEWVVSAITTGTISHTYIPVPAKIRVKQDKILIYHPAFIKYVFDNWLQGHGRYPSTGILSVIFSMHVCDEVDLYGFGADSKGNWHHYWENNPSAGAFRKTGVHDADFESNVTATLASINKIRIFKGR
UniProt Q9H040: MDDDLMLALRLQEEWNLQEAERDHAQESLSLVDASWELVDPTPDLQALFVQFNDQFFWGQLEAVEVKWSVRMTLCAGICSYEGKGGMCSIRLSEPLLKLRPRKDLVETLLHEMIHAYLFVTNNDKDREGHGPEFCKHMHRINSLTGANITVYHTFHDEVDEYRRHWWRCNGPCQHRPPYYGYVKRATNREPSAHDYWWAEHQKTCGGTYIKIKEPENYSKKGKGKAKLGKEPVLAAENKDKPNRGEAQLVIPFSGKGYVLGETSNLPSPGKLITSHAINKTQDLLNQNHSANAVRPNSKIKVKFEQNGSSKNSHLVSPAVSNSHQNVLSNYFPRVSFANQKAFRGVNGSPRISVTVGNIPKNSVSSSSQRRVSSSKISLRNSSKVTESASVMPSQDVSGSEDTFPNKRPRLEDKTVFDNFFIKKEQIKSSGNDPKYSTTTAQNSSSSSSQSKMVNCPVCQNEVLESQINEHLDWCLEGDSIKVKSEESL
UniProt O43597: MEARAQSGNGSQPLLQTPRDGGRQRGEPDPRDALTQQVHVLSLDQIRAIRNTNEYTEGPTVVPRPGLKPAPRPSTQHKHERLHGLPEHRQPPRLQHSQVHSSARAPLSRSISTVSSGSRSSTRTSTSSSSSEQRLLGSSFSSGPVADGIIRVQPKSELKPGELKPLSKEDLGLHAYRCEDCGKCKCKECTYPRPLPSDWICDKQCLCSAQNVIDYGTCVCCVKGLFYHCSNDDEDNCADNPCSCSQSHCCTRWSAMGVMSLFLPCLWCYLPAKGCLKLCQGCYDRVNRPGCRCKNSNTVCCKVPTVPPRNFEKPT
UniProt Q9UH36: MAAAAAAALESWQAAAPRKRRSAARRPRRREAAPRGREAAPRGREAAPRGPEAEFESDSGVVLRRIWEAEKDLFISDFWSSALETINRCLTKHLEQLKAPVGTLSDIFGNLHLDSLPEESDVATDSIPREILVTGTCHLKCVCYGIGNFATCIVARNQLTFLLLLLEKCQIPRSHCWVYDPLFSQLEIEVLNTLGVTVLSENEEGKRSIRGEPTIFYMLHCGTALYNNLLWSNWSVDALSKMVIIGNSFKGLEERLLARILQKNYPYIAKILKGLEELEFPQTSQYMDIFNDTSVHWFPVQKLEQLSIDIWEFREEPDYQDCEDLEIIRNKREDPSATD
UniProt Q7Z699: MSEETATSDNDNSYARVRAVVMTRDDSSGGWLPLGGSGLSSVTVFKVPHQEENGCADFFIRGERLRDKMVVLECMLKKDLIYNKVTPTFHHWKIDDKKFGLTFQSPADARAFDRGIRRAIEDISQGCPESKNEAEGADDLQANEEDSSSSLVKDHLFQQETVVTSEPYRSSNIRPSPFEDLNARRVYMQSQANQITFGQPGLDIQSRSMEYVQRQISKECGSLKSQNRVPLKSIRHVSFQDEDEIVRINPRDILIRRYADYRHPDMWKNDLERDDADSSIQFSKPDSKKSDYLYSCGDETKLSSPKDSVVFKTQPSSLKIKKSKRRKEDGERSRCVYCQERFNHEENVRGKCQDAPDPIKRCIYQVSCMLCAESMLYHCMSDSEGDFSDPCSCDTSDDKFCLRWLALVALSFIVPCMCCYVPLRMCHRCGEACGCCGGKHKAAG
UniProt Q13103: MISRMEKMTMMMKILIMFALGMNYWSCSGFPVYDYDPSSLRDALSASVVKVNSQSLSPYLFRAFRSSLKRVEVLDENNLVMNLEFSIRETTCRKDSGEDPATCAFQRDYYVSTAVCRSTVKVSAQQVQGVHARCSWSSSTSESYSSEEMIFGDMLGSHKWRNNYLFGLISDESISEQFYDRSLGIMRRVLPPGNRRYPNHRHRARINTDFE
UniProt O60225: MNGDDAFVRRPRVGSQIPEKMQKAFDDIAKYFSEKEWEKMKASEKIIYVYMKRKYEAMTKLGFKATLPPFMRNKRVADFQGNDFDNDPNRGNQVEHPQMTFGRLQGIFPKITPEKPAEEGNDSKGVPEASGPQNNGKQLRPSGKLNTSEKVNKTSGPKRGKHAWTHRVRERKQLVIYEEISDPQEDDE
UniProt Q16384, whole entry, looked up: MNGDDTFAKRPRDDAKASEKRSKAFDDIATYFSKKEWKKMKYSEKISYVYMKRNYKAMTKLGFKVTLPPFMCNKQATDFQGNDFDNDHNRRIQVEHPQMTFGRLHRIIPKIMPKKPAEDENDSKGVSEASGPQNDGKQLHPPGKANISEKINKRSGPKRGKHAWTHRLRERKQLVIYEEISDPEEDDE

Experiments:
Assay in all cases: log2 fold change, soluble protein after heating vs DMSO (PISA); higher = thermal stabilisation; K562 lysate, 10 uM; active = over 0.2 and 3.5 SD of the protein, either way, in both replicates (recomputed)
nilotinib = compound: Cc1cn(-c2cc(NC(=O)c3ccc(C)c(Nc4nccc(-c5cccnc5)n4)c3)cc(C(F)(F)F)c2)cn1 [nilotinib]
In short: (§1)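 K562 pellets were dounce-homogenised in PBS pH 7.4 with 1 mM MgCl2, and the crude extract at 1 mg/mL protein was treated with 10 μM compound for 30 min. Aliquots were heated for 3 min across 48°C-58°C, pooled, and brought to 0.5% NP-40 at 4°C; soluble protein was the supernatant after 21,000xg for 90 min. Soluble protein was quantified by TMTpro 16plex LC-MS/MS with channel sums equalised, and reported as log2 fold change in thermal stability against DMSO controls, with values from duplicates.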

[1] = compound: Cc1nc(Nc2n[nH]c3c2CN(C(=O)N[C@H](CN(C)C)c2ccccc2)C3(C)C)c2sccc2n1
In short: as §1

[2] = compound: Cc1ncc(-c2ccnc(Nc3ccc(S(C)(=O)=O)cc3)n2)n1C(C)C
In short: as §1

tipifarnib = compound: Cn1cncc1[C@@](N)(c1ccc(Cl)cc1)c1ccc2c(c1)c(-c1cccc(Cl)c1)cc(=O)n2C [tipifarnib]
In short: as §1

[3] = compound: NCC(=O)Nc1ccc(-n2nc(C(F)(F)F)cc2-c2ccc3c(ccc4ccccc43)c2)cc1
In short: as §1

dasatinib = compound: Cc1nc(Nc2ncc(C(=O)Nc3c(C)cccc3Cl)s2)cc(N2CCN(CCO)CC2)n1 [dasatinib]
In short: as §1

[4] = compound: Cn1cc(-c2ccc3c(c2)CCN3C(=O)Cc2cccc(C(F)(F)F)c2)c2c(N)ncnc21
In short: as §1

quisinostat = compound: Cn1cc(CNCC2CCN(c3ncc(C(=O)NO)cn3)CC2)c2ccccc21 [quisinostat]
In short: as §1

[5] = compound: NC(=O)Nc1cc(-c2cccc(F)c2)sc1C(=O)N[C@H]1CCCNC1
In short: as §1

[6] = compound: NC(=O)c1cnc(N[C@@H]2CCCC[C@@H]2N)nc1Nc1cccc(-n2nccn2)c1
In short: as §1

[7] = compound: NC1(c2ccc(-c3nc4ccn5c(=O)[nH]nc5c4cc3-c3ccccc3)cc2)CCC1
In short: as §1

vorinostat = compound: O=C(CCCCCCC(=O)Nc1ccccc1)NO [vorinostat]
In short: as §1

silmitasertib = compound: O=C(O)c1ccc2c(c1)nc(Nc1cccc(Cl)c1)c1ccncc12 [silmitasertib]
In short: as §1

[8] = compound: O=C1NC(=O)C(c2cnc3ccccn23)=C1c1cn2c3c(cc(F)cc13)CN(C(=O)N1CCCCC1)CC2
In short: as §1

entospletinib = compound: c1cn2cc(-c3ccc4cn[nH]c4c3)nc(Nc3ccc(N4CCOCC4)cc3)c2n1 [entospletinib]
In short: as §1

Measured: log2 fold change

SSBP4 (UniProt U3KPY3)
inactive: nilotinib -0.328 | [1] 0.026 | [2] 0.099 | tipifarnib 0.027 | [3] -0.157

SSH2 (UniProt Q76I76)
inactive: dasatinib -0.065 | [4] 0.165 | quisinostat -0.022 | [5] 0.033 | [6] 0.113 | [7] 0.09 | [3] 0.04 | vorinostat -0.228 | silmitasertib -0.012 | [8] 0.1 | entospletinib -0.14

STAM (UniProt A6NMU3)
inactive: dasatinib 0.012 | [4] 0 | quisinostat 0.034 | [5] -0.011 | [6] 0.033 | [7] 0.047 | [3] 0.015 | vorinostat -0.073 | silmitasertib -0.048 | [8] 0.028 | entospletinib 0

ST3GAL1 (UniProt Q11201)
inactive: dasatinib -0.183 | [4] 0.021 | quisinostat 0.283 | [5] -0.074 | [8] -0.169

SPRTN (UniProt Q9H040)
inactive: dasatinib 0.062 | [4] 0.101 | [3] 0.108 | entospletinib -0.048

SPRY2 (UniProt O43597)
inactive: [7] 0.076 | vorinostat 0.158 | silmitasertib -0.238

SRRD (UniProt Q9UH36)
inactive: dasatinib -0.156 | [4] 0.062 | quisinostat 0.073 | [5] 0.043 | [8] -0.001

SPRED1 (UniProt Q7Z699)
inactive: dasatinib 0.027 | [4] -0.02 | [6] 0.013 | [7] 0.039 | vorinostat 0.132 | silmitasertib -0.116 | entospletinib 0.026

SPP2 (UniProt Q13103)
inactive: [6] -0.098

SSX5 isoform 2 (UniProt O60225)
inactive: nilotinib 0.008 | [1] -0.018 | [2] 0.064 | tipifarnib 0.061 | [6] 0.026 | [7] 0.15 | [3] -0.111 | vorinostat -0.059 | silmitasertib 0.091 | entospletinib -0.035

SSX1 (UniProt Q16384)
inactive: dasatinib 0.05 | [4] 0.129 | quisinostat -0.162 | [5] 0.027 | [7] -0.376 | [3] 0.078 | vorinostat -0.379 | silmitasertib -0.021 | [8] 0.065 | entospletinib -0.013

Copied from the results shown (two entries):
SSX5 isoform 2 (UniProt O60225)
inactive: nilotinib 0.008 | [1] -0.018 | [2] 0.064 | tipifarnib 0.061 | [6] 0.026 | [7] 0.15 | [3] -0.111 | vorinostat -0.059 | silmitasertib 0.091 | entospletinib -0.035

SSX1 (UniProt Q16384)
inactive: dasatinib 0.05 | [4] 0.129 | quisinostat -0.162 | [5] 0.027 | [7] -0.376 | [3] 0.078 | vorinostat -0.379 | silmitasertib -0.021 | [8] 0.065 | entospletinib -0.013

Remaining list, next part

SPC24 (UniProt K7ESQ2)
inactive: quisinostat 0.021 | [5] 0.112 | [8] 0.123 | entospletinib -0.002
